Source: article doi:10.1101/2022.10.17.512524
No constants are given. Whether binding was seen depends on the method and setting. Binding seen in cells or lysates may run through a third protein. Some results given as binding are weak or reduced against the parent protein; the word gives no strength. For part of these data: Where a sequence is shown, tags or fusion partners need not be part of it. One block for each molecule: values may come before it.

The chains behind the UniProt entries cited, without tags or fusion partners.
UniProt P50851: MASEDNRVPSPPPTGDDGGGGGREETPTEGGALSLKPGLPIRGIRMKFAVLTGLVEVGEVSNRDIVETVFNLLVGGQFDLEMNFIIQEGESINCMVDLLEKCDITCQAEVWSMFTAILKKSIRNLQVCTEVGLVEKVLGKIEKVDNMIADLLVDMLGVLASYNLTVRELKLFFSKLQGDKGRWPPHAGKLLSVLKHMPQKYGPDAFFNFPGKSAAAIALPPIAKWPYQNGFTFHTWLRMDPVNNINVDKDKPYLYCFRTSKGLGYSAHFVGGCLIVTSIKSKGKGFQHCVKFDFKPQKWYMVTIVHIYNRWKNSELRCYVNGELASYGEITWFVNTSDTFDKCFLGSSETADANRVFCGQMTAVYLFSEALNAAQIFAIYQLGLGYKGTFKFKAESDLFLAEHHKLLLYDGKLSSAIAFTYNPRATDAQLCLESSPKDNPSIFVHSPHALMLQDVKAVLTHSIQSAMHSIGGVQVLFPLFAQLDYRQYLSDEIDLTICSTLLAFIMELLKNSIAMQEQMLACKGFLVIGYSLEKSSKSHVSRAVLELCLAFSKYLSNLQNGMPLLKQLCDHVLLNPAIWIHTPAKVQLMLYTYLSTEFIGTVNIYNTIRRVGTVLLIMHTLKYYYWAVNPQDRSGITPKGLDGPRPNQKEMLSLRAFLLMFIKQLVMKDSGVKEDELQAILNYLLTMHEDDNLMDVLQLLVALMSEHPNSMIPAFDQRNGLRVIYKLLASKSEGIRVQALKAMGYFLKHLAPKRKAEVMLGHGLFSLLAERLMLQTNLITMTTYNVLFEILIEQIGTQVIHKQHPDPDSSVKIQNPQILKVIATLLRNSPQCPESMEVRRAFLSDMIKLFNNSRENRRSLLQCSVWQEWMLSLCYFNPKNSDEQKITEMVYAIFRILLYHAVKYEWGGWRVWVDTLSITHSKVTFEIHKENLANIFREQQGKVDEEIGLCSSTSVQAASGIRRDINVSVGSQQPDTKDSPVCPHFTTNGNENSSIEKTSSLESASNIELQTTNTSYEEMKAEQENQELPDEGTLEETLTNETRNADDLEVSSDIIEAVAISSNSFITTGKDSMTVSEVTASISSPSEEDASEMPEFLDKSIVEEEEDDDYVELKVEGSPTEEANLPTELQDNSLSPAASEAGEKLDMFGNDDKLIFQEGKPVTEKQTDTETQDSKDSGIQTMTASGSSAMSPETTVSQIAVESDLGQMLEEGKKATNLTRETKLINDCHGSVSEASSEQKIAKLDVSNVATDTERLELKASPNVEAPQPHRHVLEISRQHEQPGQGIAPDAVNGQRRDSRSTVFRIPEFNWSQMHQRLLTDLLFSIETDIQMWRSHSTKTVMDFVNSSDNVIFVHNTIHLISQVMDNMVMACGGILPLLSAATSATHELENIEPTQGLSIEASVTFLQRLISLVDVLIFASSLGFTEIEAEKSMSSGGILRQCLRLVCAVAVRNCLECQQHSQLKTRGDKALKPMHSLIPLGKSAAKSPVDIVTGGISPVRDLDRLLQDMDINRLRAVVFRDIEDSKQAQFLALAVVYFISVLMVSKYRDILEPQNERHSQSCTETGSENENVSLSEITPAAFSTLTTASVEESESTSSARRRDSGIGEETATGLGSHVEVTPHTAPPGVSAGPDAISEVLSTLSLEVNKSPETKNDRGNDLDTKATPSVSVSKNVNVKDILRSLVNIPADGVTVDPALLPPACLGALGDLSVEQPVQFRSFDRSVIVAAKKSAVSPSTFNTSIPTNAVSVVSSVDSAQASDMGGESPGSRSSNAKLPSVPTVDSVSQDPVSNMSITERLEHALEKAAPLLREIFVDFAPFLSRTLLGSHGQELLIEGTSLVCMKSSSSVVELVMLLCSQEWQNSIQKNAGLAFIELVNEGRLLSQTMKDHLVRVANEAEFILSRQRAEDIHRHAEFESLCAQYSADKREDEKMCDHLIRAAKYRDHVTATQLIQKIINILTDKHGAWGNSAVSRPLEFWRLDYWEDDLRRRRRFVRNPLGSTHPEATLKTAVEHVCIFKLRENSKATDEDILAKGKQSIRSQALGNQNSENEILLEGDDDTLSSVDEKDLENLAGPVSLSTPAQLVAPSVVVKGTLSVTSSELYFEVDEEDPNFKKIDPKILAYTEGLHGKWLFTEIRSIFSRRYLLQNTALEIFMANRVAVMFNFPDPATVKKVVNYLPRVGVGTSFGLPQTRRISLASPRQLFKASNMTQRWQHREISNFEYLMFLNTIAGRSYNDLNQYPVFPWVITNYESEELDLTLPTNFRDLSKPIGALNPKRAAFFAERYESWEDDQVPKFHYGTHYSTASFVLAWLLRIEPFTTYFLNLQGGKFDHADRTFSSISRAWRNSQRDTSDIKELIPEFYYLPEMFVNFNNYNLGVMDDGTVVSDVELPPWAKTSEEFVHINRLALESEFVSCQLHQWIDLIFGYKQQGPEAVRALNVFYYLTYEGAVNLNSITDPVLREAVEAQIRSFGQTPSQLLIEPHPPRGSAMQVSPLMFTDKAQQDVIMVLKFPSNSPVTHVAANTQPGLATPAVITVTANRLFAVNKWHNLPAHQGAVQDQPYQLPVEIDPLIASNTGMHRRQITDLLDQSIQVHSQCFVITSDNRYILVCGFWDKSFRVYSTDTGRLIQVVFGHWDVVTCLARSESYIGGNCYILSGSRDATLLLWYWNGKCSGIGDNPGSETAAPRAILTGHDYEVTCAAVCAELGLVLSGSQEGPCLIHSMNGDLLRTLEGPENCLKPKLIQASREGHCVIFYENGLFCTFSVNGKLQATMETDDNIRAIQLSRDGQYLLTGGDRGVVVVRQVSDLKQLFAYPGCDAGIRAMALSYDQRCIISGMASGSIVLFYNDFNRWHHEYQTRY
UniProt Q6ZNE5: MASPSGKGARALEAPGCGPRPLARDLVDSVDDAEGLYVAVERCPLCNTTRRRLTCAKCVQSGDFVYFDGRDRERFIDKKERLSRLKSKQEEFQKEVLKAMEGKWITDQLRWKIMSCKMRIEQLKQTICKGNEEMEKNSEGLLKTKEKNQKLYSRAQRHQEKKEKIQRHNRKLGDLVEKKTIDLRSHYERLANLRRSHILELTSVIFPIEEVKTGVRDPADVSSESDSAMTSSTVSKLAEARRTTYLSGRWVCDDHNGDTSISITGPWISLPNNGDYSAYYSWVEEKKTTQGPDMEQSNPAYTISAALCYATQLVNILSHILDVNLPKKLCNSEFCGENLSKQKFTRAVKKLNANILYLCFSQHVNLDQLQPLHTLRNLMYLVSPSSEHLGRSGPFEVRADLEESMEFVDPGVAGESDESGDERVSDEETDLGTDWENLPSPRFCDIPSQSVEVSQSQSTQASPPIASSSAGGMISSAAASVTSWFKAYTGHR
UniProt Q14457: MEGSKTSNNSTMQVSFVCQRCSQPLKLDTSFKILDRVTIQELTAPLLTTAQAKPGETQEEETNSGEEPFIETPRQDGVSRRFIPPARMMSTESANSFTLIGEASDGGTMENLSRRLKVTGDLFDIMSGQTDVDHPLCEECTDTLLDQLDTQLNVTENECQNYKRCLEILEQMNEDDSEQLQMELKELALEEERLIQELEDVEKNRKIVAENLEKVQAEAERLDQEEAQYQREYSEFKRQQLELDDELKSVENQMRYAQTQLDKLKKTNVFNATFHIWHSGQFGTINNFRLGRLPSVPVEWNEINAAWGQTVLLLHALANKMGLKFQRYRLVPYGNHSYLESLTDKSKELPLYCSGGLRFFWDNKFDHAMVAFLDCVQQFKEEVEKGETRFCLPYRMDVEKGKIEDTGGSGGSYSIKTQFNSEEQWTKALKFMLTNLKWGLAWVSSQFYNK
UniProt Q99570: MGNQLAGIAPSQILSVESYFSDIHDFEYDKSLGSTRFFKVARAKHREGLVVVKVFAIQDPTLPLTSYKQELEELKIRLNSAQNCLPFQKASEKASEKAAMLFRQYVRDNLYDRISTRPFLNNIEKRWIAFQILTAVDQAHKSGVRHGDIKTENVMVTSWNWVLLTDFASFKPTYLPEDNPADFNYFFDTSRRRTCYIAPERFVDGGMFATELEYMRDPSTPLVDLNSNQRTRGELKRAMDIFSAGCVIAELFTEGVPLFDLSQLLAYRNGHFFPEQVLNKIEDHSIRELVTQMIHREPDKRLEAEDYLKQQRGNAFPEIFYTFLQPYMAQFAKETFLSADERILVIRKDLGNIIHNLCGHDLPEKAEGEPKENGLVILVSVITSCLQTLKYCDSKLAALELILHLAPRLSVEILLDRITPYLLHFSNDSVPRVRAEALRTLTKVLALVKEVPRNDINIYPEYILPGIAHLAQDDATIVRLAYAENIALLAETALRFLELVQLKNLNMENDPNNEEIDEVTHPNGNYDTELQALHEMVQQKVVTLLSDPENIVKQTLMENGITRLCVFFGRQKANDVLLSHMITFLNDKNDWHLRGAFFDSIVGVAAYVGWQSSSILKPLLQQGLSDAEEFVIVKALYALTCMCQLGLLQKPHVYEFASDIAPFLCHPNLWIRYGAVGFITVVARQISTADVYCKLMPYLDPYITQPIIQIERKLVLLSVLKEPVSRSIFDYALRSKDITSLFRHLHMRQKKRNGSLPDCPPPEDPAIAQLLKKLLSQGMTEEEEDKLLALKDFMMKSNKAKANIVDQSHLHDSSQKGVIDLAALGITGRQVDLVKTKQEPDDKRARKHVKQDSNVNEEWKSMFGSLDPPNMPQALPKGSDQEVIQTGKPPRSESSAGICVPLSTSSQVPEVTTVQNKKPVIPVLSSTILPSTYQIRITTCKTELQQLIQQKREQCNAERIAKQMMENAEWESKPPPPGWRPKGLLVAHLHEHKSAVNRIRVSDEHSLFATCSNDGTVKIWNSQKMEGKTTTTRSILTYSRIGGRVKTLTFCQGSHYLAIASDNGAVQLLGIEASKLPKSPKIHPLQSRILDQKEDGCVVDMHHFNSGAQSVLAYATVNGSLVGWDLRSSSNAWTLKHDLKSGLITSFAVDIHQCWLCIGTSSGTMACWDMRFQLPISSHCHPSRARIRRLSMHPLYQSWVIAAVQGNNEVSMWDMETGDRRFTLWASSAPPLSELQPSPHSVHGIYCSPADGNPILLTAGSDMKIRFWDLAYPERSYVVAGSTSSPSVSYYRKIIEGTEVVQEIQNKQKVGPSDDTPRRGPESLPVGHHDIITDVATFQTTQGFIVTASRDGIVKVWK

Experiments:
[1] = biological target: Human LRBA full length tagged to Myc-DDK (human) (UniProt P50851); test: co-IP + proximity ligation
[2] = biological target: lipopolysaccharide-responsive beige-like anchor protein (LRBA), endogenous (human (endogenous in HEK293T and LCL)) (UniProt P50851); test: co-IP + proximity ligation
[3] = biological target: Human LRBA full length tagged to Myc-DDK (human) (UniProt P50851); test: co-IP
[4] = biological target: lipopolysaccharide-responsive beige-like anchor protein (LRBA), endogenous (human (endogenous in HEK293T and LCL)) (UniProt P50851); test: co-IP
[5] = biological target: lipopolysaccharide-responsive beige-like anchor protein (LRBA), endogenous (human (endogenous in HEK293T and LCL)) (UniProt P50851); test: proximity ligation
[6] = biological target: Human LRBA full length tagged to Myc-DDK (human) (UniProt P50851); test: co-IP; remark: listed apart in the source

Molecule: AuTophaGy Related protein 14L (ATG14L) (from UniProt Q6ZNE5 1-492)
binding [1]: no binding

B1: GFP-tagged FYVE And Coiled-Coil Domain Autophagy Adaptor 1 (FYCO1) (protein, UniProt Q9BQS8 1-1478)
chain: MASTNAESQLQRIIRDLQDAVTELSKEFQEAGEPITDDSTSLHKFSYKLEYLLQFDQKEKATLLGNKKDYWDYFCACLAKVKGANDGIRFVKSISELRTSLGKGRAFIRYSLVHQRLADTLQQCFMNTKVTSDWYYARSPFLQPKLSSDIVGQLYELTEVQFDLASRGFDLDAAWPTFARRTLTTGSSAYLWKPPSRSSSMSSLVSSYLQTQEMVSNFDLNSPLNNEALEGFDEMRLELDQLEVREKQLRERMQQLDRENQELRAAVSQQGEQLQTERERGRTAAEDNVRLTCLVAELQKQWEVTQATQNTVKELQTCLQGLELGAAEKEEDYHTALRRLESMLQPLAQELEATRDSLDKKNQHLASFPGWLAMAQQKADTASDTKGRQEPIPSDAAQEMQELGEKLQALERERTKVEEVNRQQSAQLEQLVKELQLKEDARASLERLVKEMAPLQEELSGKGQEADQLWRRLQELLAHTSSWEEELAELRREKKQQQEEKELLEQEVRSLTRQLQFLETQLAQVSQHVSDLEEQKKQLIQDKDHLSQQVGMLERLAGPPGPELPVAGEKNEALVPVNSSLQEAWGKPEEEQRGLQEAQLDDTKVQEGSQEEELRQANRELEKELQNVVGRNQLLEGKLQALQADYQALQQRESAIQGSLASLEAEQASIRHLGDQMEASLLAVRKAKEAMKAQMAEKEAILQSKEGECQQLREEVEQCQQLAEARHRELRALESQCQQQTQLIEVLTAEKGQQGVGPPTDNEARELAAQLALSQAQLEVHQGEVQRLQAQVVDLQAKMRAALDDQDKVQSQLSMAEAVLREHKTLVQQLKEQNEALNRAHVQELLQCSEREGALQEERADEAQQREEELRALQEELSQAKCSSEEAQLEHAELQEQLHRANTDTAELGIQVCALTVEKERVEEALACAVQELQDAKEAASREREGLERQVAGLQQEKESLQEKLKAAKAAAGSLPGLQAQLAQAEQRAQSLQEAAHQELNTLKFQLSAEIMDYQSRLKNAGEECKSLRGQLEEQGRQLQAAEEAVEKLKATQADMGEKLSCTSNHLAECQAAMLRKDKEGAALREDLERTQKELEKATTKIQEYYNKLCQEVTNRERNDQKMLADLDDLNRTKKYLEERLIELLRDKDALWQKSDALEFQQKLSAEERWLGDTEANHCLDCKREFSWMVRRHHCRICGRIFCYYCCNNYVLSKHGGKKERCCRACFQKLSEGPGSPDSSGSGTSQGEPSPALSPASPGPQATGGQGANTDYRPPDDAVFDIITDEELCQIQESGSSLPETPTETDSLDPNAAEQDTTSTSLTPEDTEDMPVGQDSEICLLKSGELMIKVPLTVDEIASFGEGSRELFVRSSTYSLIPITVAEAGLTISWVFSSDPKSISFSVVFQEAEDTPLDQCKVLIPTTRCNSHKENIQGQLKVRTPGIYMLIFDNTFSRFVSKKVFYHLTVDRPVIYDGSDFL
binding [6]: binds

Now from value to molecule:

binding [2]: no binding
Molecule: Beclin-1 (from UniProt Q14457 1-450)

binding [3]: binds
Molecule: his-tagged PIK3R4 (from UniProt Q99570 1-1358)

binding [4]: binds | binding [5]: binds
Molecule: phosphoinositide 3-kinase regulatory subunit 4 (PIK3R4), endogenous (from UniProt Q99570 1-1358)
